Results: patent US11235001B2, “RUNX inhibitor” (KYOTO UNIVERSITY, priority 2016, dated 2022)

Columns and labels:
Assay in all cases: cells
SU/SR cells = settings: Homo sapiens, 48 h, read-out: IC50 value
DU-145 cells = settings: Homo sapiens, DU-145, 48 h, read-out: IC50 (μM) in DU-145 cells
PC-3 cells = settings: Homo sapiens, PC-3, 48 h, read-out: IC50 (μM) in PC-3 cells

| SMILES | IC50 (SU/SR cells) [µM] | IC50 (DU-145 cells) [µM] | IC50 (PC-3 cells) [µM] |
| --- | --- | --- | --- |
| Cc1ccc(NC(=O)c2ccc(CN3CCN(C)CC3)cc2)cc1Nc1nccc(-c2cccnc2)n1 [imatinib, reference compound] | 14.8 |  |  |
| CNC(=O)c1ccc(N2C(=S)N(c3ccc(C#N)c(C(F)(F)F)c3)C(=O)C2(C)C)cc1F [Enzalutamide] |  | 47.2 | 88.1 |
